Results published in PubChem BioAssay AID330 (DTP/NCI, 2004).
The list does not hold the whole screen: it is rich in T/C values a quarter to a half above the control, in often repeated tests (any T/C) and in doses without a T/C. Other doses and runs of a compound stand elsewhere. T/C is the treated group as % of the vehicle group. Some doses have a count of surviving animals in place of a T/C: the source files T/C as zero there, which appears to mark a toxic dose or a test without result, not a measured value. Some doses without a T/C left all or most animals alive at the check, yet need not have been tolerated: survival well below the control is almost never listed, so the zero probably covers shortened survival too. Survivors were counted at the toxicity check, usually on the fifth day, unless a day is given; later deaths do not show. Schedule codes are those of the source, read here as Q, the interval in days (D) or hours (H), X, the number of doses. Some entries hold several experiments; their values stand side by side, smallest first. Where survival is the endpoint, the PubChem record calls one and a half times the control and up active, and a quarter to a half above the control has no call in these data; cut-offs in other NCI protocols can differ.

System: P388 leukemia ip, CD2F1 mice, survival T/C
Assay: NCI In Vivo Anticancer Drug Screen. Data for tumor model P388 Leukemia (intraperitoneal) in CD2F1 (CDF1) mice
Conditions: T/C endpoint: median survival time, higher T/C = longer survival
[1] = dose: 6.25 mg/kg/injection, schedule: Q01DX009 (ip), vehicle: saline
[2] = dose: 12.5 mg/kg/injection, schedule: Q01DX009 (ip), vehicle: saline
[3] = dose: 50.0 mg/kg/injection, schedule: Q01DX009 (ip), vehicle: saline with Tween-80
[4] = dose: 200.0 mg/kg/injection, schedule: Q01DX009 (ip), vehicle: saline with Tween-80
[5] = dose: 100.0 mg/kg/injection, schedule: Q01DX001 (ip), vehicle: Klucel (hydroxypropylcellulose) (HPC)
[6] = dose: 200.0 mg/kg/injection, schedule: Q01DX001 (ip), vehicle: Klucel (hydroxypropylcellulose) (HPC)
[7] = dose: 50.0 mg/kg/injection, schedule: Q01DX005 (ip), vehicle: saline with Tween-80
[8] = dose: 100.0 mg/kg/injection, schedule: Q01DX005 (ip), vehicle: saline with Tween-80
[9] = dose: 200.0 mg/kg/injection, schedule: Q01DX005 (ip), vehicle: saline with Tween-80
[10] = dose: 200.0 mg/kg/injection, schedule: Q01DX005 (ip), vehicle: Klucel (hydroxypropylcellulose) (HPC)
[11] = dose: 200.0 mg/kg/injection, schedule: Q01DX009 (ip), vehicle: Klucel (hydroxypropylcellulose) (HPC)
[12] = dose: 50.0 mg/kg/injection, schedule: Q01DX009 (ip), vehicle: saline
[13] = dose: 100.0 mg/kg/injection, schedule: Q01DX009 (ip), vehicle: saline
[14] = dose: 200.0 mg/kg/injection, schedule: Q01DX009 (ip), vehicle: saline

For `N#CC(=C1SCS1)[N+](=O)[O-]`, the T/C (dose: 3.13 mg/kg/injection, schedule: Q01DX009 (ip), vehicle: saline) was 128 % of control, the T/C (dose: 6.25 mg/kg/injection, schedule: Q01DX009 (ip), vehicle: saline with Tween-80) was 128 % of control and the survivor count [1] was 4 of 6. The survivor count (dose: 12.5 mg/kg/injection, schedule: Q01DX009 (ip), vehicle: saline with Tween-80) was 1 of 6, the survivor count [2] was 3 of 6 and the survivor count [3] was 0 of 6. For the same compound, the survivor count (dose: 100.0 mg/kg/injection, schedule: Q01DX009 (ip), vehicle: saline with Tween-80) was 0 of 6 and the survivor count [4] was 0 of 6.

With `[Cl][Pt+2][Cl].[NH-]CC([NH-])c1ccccc1` (centres undefined) the T/C (dose: 3.12 mg/kg/injection, schedule: Q01DX001 (ip), vehicle: Klucel (hydroxypropylcellulose) (HPC)) was 135 % of control, the T/C (dose: 6.25 mg/kg/injection, schedule: Q01DX001 (ip), vehicle: Klucel (hydroxypropylcellulose) (HPC)) was 133 % of control and the survivor count [5] was 5 of 6. For the same compound, the survivor count [6] was 5 of 6.

For `COc1cc2c3c4c1OCc1c5c(cc(c1-4)CC3[N+](C)(C)CC2)OCO5` (centres undefined), the survivor count (dose: 50.0 mg/kg/injection, schedule: Q01DX001 (ip), vehicle: saline) was 0 of 6, the survivor count (dose: 100.0 mg/kg/injection, schedule: Q01DX001 (ip), vehicle: saline) was 0 of 6 and the survivor count (dose: 200.0 mg/kg/injection, schedule: Q01DX001 (ip), vehicle: saline) was 0 of 6. For the same compound, the survivor count (dose: 400.0 mg/kg/injection, schedule: Q01DX001 (ip), vehicle: saline) was 0 of 6.

`S=C(NCCCN1CCN(CCCNC(=S)Nc2c3ccccc3nc3ccccc23)CC1)Nc1c2ccccc2nc2ccccc12` was tested, and the survivor count [7] was 2 of 6, the survivor count [8] was 0 of 6 and the survivor count [9] was 0 of 6.

In the case of `CCP(=S)(CC)[S][Sn]([CH3])([CH3])[S]P(=S)(CC)CC`, the survivor count [10] is reported as 3 of 6.

With `CNC(=O)OCc1c(-c2ccccc2)c(-c2ccccc2)n(-c2ccccc2)c1COC(=O)NC` the T/C (dose: 50.0 mg/kg/injection, schedule: Q01DX009 (ip), vehicle: distilled water + Tween-80) was 126 and 134 % of control, the T/C (dose: 100.0 mg/kg/injection, schedule: Q01DX009 (ip), vehicle: distilled water + Tween-80) was 144 % of control and the T/C (dose: 400.0 mg/kg/injection, schedule: Q01DX009 (ip), vehicle: distilled water + Tween-80) was 139 % of control.

For `CCOC(=O)N1CCc2cc3c(cc2C1Cc1ccc(OC)c(OC)c1CCl)OCO3` (centres undefined), the survivor count [9] was 6 of 6.

`COc1ccc2c(c1OC)C[C@@H]1c3c(cc4c(c3-2)OCO4)CCN1C` was tested, and the survivor count (dose: 100.0 mg/kg/injection, schedule: Q01DX005 (ip), vehicle: Klucel (hydroxypropylcellulose) (HPC)) was 0 of 6 and the survivor count [10] was 0 of 6.

With `CCCOC(=O)C(F)C(Br)C(=O)OCCC` (centres undefined) the T/C [4] was 126 % of control and the survivor count (dose: 400.0 mg/kg/injection, schedule: Q01DX009 (ip), vehicle: saline with Tween-80) was 1 of 6.

With `O=C(Nc1ccc2c(c1)Cc1ccccc1-2)c1cccc2ccccc12` the survivor count (dose: 6.25 mg/kg/injection, schedule: Q01DX005 (ip), vehicle: saline with Tween-80) was 6 of 6, the survivor count (dose: 12.5 mg/kg/injection, schedule: Q01DX005 (ip), vehicle: saline with Tween-80) was 6 of 6 and the survivor count (dose: 25.0 mg/kg/injection, schedule: Q01DX005 (ip), vehicle: saline with Tween-80) was 6 of 6. The survivor count [7] was 5 of 5 and the survivor count [8] was 5 of 5.

In the case of `C#CCSc1nc2ccccc2s1`, the survivor count [11] is reported as 1 of 6.

With `[CH3][Sn]([CH3])([Cl])[CH2]CC[CH2][Sn]([CH3])([Cl])[Cl]` the survivor count [1] was 2 of 6, the survivor count [2] was 0 of 6 and the survivor count (dose: 25.0 mg/kg/injection, schedule: Q01DX009 (ip), vehicle: saline) was 0 of 6. The survivor count [12] was 0 of 6, the survivor count [13] was 0 of 6 and the survivor count [14] was 0 of 6.

`CCC[CH2][Sn]([CH2]CCC)([S]CC(=O)OCc1ccccc1)[S]CC(=O)OCc1ccccc1` was tested, and the survivor count [5] was 2 of 6, the survivor count [6] was 0 of 6 and the survivor count (dose: 400.0 mg/kg/injection, schedule: Q01DX001 (ip), vehicle: Klucel (hydroxypropylcellulose) (HPC)) was 0 of 6.

With `CCOc1ccc(-c2nc(Cl)nc(Cl)n2)c2ccccc12` the survivor count (dose: 240.0 mg/kg/injection, schedule: Q01DX005 (ip), vehicle: Klucel (hydroxypropylcellulose) (HPC)) was 2 of 6.

With `O=C(/C=C/c1ccco1)C1C(=O)CCC1=O` the survivor count (dose: 200.0 mg/kg/injection, schedule: Q01DX005 (ip), vehicle: Klucel + Tween-80) was 4 of 6.

In the case of `COc1ccc2c(c1)CCC1=C2N=CN2CCN=C12`, the survivor count (dose: 200.0 mg/kg/injection, schedule: Q04DX002 (ip), vehicle: saline with Tween-80) is reported as 0 of 6 and the survivor count (dose: 400.0 mg/kg/injection, schedule: Q04DX002 (ip), vehicle: saline with Tween-80) is reported as 0 of 6.

`Cc1c(N)nc(C(CC(N)=O)NCC(N)C(N)=O)nc1C(=O)NC(C(=O)NC(C)C(O)CC(=O)NC(C(=O)NC(OC1OC(C)C(N)C(O)C1O)C(O)c1nc(-c2nc(C(=O)NCCCC(N)CC(=O)NCCCNCCCCN)cs2)cs1)C(C)O)C(OC1OC(CO)C(O)C(O)C1OC1OC(CO)C(O)C(OC(N)=O)C1O)c1cnc[nH]1` (centres undefined) was tested, and the survivor count (dose: 3.6 mg/kg/injection, schedule: Q01DX009 (ip), vehicle: water) was 6 of 6, the survivor count (dose: 4.0 mg/kg/injection, schedule: Q01DX009 (ip), vehicle: water) was 6 of 6 and the survivor count (dose: 6.0 mg/kg/injection, schedule: Q01DX009 (ip), vehicle: water) was 3 of 6 and 6 of 6. The survivor count (dose: 8.0 mg/kg/injection, schedule: Q01DX009 (ip), vehicle: water) was 5 of 6.

For `CCCCn1c2nc(=O)[nH]c(=O)c-2[n+]([O-])c2ccccc21`, the survivor count (dose: 100.0 mg/kg/injection, schedule: Q01DX001 (ip), vehicle: saline with Tween-80) was 1 of 6.

With `Cc1ccc(N=NN(C)C)cc1` the T/C [3] was 145 % of control, the T/C (dose: 75.0 mg/kg/injection, schedule: Q01DX009 (ip), vehicle: saline with Tween-80) was 136 % of control and the survivor count (dose: 100.0 mg/kg/injection, schedule: Q04DX003 (ip), vehicle: saline with Tween-80) was 5 of 6. The survivor count (dose: 200.0 mg/kg/injection, schedule: Q04DX003 (ip), vehicle: saline with Tween-80) was 5 of 6 and the survivor count (dose: 400.0 mg/kg/injection, schedule: Q04DX003 (ip), vehicle: saline with Tween-80) was 0 of 6.

For `O=S1C2CCC(Cl)C1CCC2Cl` (centres undefined), the survivor count (dose: 3.12 mg/kg/injection, schedule: Q01DX009 (ip), vehicle: Klucel (hydroxypropylcellulose) (HPC)) was 0 of 6, the survivor count (dose: 6.25 mg/kg/injection, schedule: Q01DX009 (ip), vehicle: Klucel (hydroxypropylcellulose) (HPC)) was 0 of 6 and the survivor count (dose: 12.5 mg/kg/injection, schedule: Q01DX009 (ip), vehicle: Klucel (hydroxypropylcellulose) (HPC)) was 0 of 6. The survivor count (dose: 25.0 mg/kg/injection, schedule: Q01DX009 (ip), vehicle: Klucel (hydroxypropylcellulose) (HPC)) was 0 of 6, the survivor count (dose: 50.0 mg/kg/injection, schedule: Q01DX009 (ip), vehicle: Klucel (hydroxypropylcellulose) (HPC)) was 0 of 6 and the survivor count (dose: 100.0 mg/kg/injection, schedule: Q01DX009 (ip), vehicle: Klucel (hydroxypropylcellulose) (HPC)) was 0 of 6. For the same compound, the survivor count [11] was 0 of 6.

`CCOC(=O)/C(Cl)=C(\C)Nc1nc2c(ccc3ccccc32)s1` was tested, and the survivor count (dose: 240.0 mg/kg/injection, schedule: Q01DX005 (ip), vehicle: saline with Tween-80) was 6 of 6.

For `CCC1(c2ccccc2)N=C1N(C)C` (centres undefined), the T/C [12] was 96 and 122 % of control, the survivor count [12] was 0 of 6 and the survivor count [13] was 0 of 6 and 6 of 6. The survivor count [14] was 0 of 6.
